Source: paper PMC6307790
These are yes or no findings as the source states them, for the method shown. For some of these results: In cells and extracts the contact can be indirect. Some binding calls cover weakened binding; strength is not graded here.

Amino acid sequences for entries named in this document (tags omitted).
UniProt Q9Y5Y6: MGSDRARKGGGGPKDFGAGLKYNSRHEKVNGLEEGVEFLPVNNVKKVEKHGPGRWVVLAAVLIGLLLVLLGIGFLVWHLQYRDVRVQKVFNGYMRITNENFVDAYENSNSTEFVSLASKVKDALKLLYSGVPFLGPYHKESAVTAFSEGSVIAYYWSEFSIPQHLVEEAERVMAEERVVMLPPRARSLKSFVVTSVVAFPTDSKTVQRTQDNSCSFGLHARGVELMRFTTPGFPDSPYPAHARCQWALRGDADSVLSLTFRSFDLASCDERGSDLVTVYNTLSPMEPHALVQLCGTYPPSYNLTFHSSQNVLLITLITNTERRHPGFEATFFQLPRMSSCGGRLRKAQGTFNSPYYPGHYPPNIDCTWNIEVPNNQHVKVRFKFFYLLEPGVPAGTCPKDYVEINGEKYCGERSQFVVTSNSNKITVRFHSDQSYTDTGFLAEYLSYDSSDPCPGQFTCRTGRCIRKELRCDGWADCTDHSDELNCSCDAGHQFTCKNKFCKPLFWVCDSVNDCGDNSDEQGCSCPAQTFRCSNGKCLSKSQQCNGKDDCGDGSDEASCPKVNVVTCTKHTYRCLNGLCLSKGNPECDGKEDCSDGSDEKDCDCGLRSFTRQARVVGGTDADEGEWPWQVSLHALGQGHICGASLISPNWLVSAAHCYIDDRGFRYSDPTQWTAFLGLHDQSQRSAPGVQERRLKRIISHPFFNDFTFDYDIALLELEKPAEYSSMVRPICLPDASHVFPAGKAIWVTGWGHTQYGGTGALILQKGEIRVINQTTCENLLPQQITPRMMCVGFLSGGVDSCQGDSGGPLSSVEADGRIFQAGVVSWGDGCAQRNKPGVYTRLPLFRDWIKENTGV

B1: Hepatocyte growth factor activator inhibitor-1 (HAI-1) (protein, UniProt O43278 36-529)
chain: GPPPAPPGLPAGADCLNSFTAGVPGFVLDTNASVSNGATFLESPTVRRGWDCVRACCTTQNCNLALVELQPDRGEDAIAACFLINCLYEQNFVCKFAPREGFINYLTREVYRSYRQLRTQGFGGSGIPKAWAGIDLKVQPQEPLVLKDVENTDWRLLRGDTDVRVERKDPNQVELWGLKEGTYLFQLTVTSSDHPEDTANVTVTVLSTKQTEDYCLASNKVGRCRGSFPRWYYDPTEQICKSFVYGGCLGNKNNYLREEECILACRGVQGGPLRGSSGAQATFPQGPSMERRHPVCSGTCQPTQFRCSNGCCIDSFLECDDTPNCPDASDEAACEKYTSGFDELQRIHFPSDKGHCVDLPDTGLCKESIPRWYYNPFSEHCARFTYGGCYGNKNNFEEEQQCLESCRGISKKDVFGLRREIPIPSTGSVEMAVAVFLVICIVVVVAILGYCFFKNQRKDFHGHHHHPPPTPASSTVSTTEDTEHLVYNHTTRPL
B2: ectopically overexpressed HAI-1 (protein, UniProt O43278 36-529)
chain: B1 chain

Key:
[1] = biological target: activated matriptase (human (endogenous in A431, MCF-7 and SW620)) (UniProt Q9Y5Y6); test: Western blot of non-reduced, non-boiled samples on SDS-PAGE (~120 kD complex band); cell lysates of A431, MCF-7 and SW620 cells, untreated or treated with 3-Cl-AHPC (times and doses varied), EGF, matriptase siRNA or HAI-1 plasmid; 8% SDS-PAGE; complex band detected with M24, M69 and M19 antibodies
[2] = biological target: activated matriptase (human (endogenous in A431, MCF-7 and SW620)) (UniProt Q9Y5Y6); test: co-IP; A431 cells serum-starved, treated with 3-Cl-AHPC (1 uM) for 12 hours; lysis in 1% Triton X-100 in PBS; M69 or M19 immobilised on Protein G Agarose, overnight in a cold room; elution with 0.1 M glycine pH 2.4; immunoblot without beta-mercaptoethanol
[3] = biological target: activated matriptase (human (endogenous in A431, MCF-7 and SW620)) (UniProt Q9Y5Y6); test: Western blot of non-reduced, non-boiled samples on SDS-PAGE (~120 kD complex band); conditioned medium of A431 and MCF-7 cells treated with 1 uM 3-Cl-AHPC for 12 hours

Row | Binder | binding [1] | binding [2] | binding [3]
1 | B1 | binds | binds | binds
2 | B2 | binds | – | –
